# According to the supplement of paper PMC3334620:
# Over roughly 33,000 sequences, “E-score (-0.5 to 0.5)” has its median near -0.0014; the highest 2% begin near 0.25. The list shows a part of the results.
# Target: T1, Cad1 (UniProt P24813)
# T1 sequence: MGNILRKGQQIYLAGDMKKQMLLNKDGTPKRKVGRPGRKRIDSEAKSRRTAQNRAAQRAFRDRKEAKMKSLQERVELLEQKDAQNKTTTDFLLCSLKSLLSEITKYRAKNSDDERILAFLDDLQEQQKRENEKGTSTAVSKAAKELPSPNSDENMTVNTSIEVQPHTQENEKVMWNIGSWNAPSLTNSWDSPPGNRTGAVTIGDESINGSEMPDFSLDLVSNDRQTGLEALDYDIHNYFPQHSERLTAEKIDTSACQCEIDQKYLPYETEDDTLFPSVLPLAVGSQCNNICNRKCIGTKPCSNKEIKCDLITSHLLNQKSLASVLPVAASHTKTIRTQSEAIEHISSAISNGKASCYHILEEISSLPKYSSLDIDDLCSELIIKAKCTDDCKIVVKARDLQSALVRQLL
# Experiment: PBM E-score (8-mer binding enrichment) (E-score (-0.5 to 0.5)); higher = stronger / more preferred TF binding
# Conditions: protein concentration: 100 nM; construct: GST-full length
# Method in brief: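 Each ungapped eight-base word and its reverse complement, pooled, received an E-score from the Universal PBM Analysis Suite. Underlying scans, normalised with masliner, recorded fluorescent anti-GST bound to GST-tagged yeast transcription factors. These were applied at about 100-200 nM to universal all-10-mer Agilent arrays double-stranded by primer extension.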
row,Sequence,PBM E-score
1,AGCAGGGA,-0.0422
2,CTCCACAG,-0.197
3,AATCGAGG,0.229
4,AATGTCTG,0.0901
5,CGCGATGA,0.244
6,TCCCGTCA,-0.0555
7,GACCACCC,-0.155
8,TACACGAA,0.131
9,ATCCGTTG,0.0806
10,ACCTAGTC,-0.203
11,AGGGCTAT,-0.225
12,TCACATCA,0.108
13,CCTCATGA,0.0793
14,ATGGATGA,0.0287
15,CAAGAGGG,-0.247
16,AACGTATG,-0.0601
17,ACCACCCG,-0.148
18,AGGAGTTA,-0.0455
19,TACGGGAA,-0.154
20,CGGGAGAA,-0.064
21,ATTTGTCG,0.147
22,ACTATGAC,0.0514
23,AGGGATGC,-0.317
24,AAATTACG,-0.00187
25,ACGAACTG,-0.0705

row,Sequence,PBM E-score
1,AAGCCTTG,0.00151
2,ACGTAAGT,-0.102
3,GACTATGC,0.0921
4,CCTATCCA,-0.149
5,GCCTGGCC,-0.0384
6,ATACGATA,0.0741
7,CCGGAGCC,-0.121
8,ACCTTGAA,-0.0508
9,CAGCCCGG,-0.0203
10,GCGCGTAC,0.177
11,AGTCATCC,0.069
12,CATAAGGA,-0.0685
13,TCAAGAGA,0.00496
14,ATCGCTCC,-0.0915
15,CTCCGACA,-0.0623
16,ACTCTTGG,-0.0149
17,CCCATCGG,0.0864
18,AGGCTCTA,-0.206
19,AACTGATC,-0.03
20,ATTATCAA,0.297
21,CCGCAACG,0.0864
22,CCATCCAC,0.00183
23,TCATATCA,0.0259
24,GTTGGATA,-0.00805
25,ATAGGGTG,-0.182

row,Sequence,PBM E-score
1,ACTAATCA,0.344
2,CAATTTCG,-0.0461
3,ACACCGAG,-0.0203
4,CCTGGAAG,-0.115
5,ACTGGCGA,-0.221
6,ACGACATC,-0.123
7,CACTACCC,0.0105
8,CTGCCGAA,-0.159
9,AATGGAAG,-0.0397
10,AAAGAGAG,-0.246
11,CCCGGAAA,0.134
12,ACTAGCGC,0.0861
13,CAGGATCG,-0.0584
14,CCGGTCTC,-0.161
15,AGCATGCG,0.193
16,ACTAGAGA,-0.224
17,CTATGTGC,-0.0758
18,CGGGCGAC,-0.302
19,AGTCGTGA,0.0708
20,GTACCGGA,0.0675
21,GGGGGTTA,-0.4
22,CGCCGTCC,0.138
23,CCGGGATA,0.0494
24,AGTACTCA,0.00679
25,ACAATCCC,0.0372

row,Sequence,PBM E-score
1,AAGTTGGT,0.252
2,GCGCGCAA,0.303
3,CTACTATA,0.00732
4,ACAAGGAA,0.0729
5,CAAGTGTA,0.113
6,CTAGCACC,-0.0114
7,ACCTTCCC,-0.143
8,CGCTGACC,0.117
9,AGTTAAGA,-0.0062
10,AAACGCAG,-0.0302
11,AGCACTTG,-0.324
12,GACTGGTA,-0.0461
13,AAGTTCAG,-0.00226
14,CGTATTGC,0.0488
15,ACGTTGGC,-0.143
16,GGCGACCC,-0.332
17,GACCATAC,-0.11
18,CTTGGACC,-0.311
19,GGGGTTAC,-0.29
20,CGGGAATA,-0.00204
21,AGCAGAAC,0.0692
22,CGATCCCG,-0.265
23,TATGGTGA,-0.0568
24,GAGGGGCC,-0.25
25,CTCCGCCA,-0.217

row,Sequence,PBM E-score
1,ACTTGCCC,-0.0536
2,CCTTACAA,-0.0338
3,AGTAGTAG,-0.0473
4,AATATACT,0.0724
5,CAAACTAA,0.258
6,AAGGATTC,-0.104
7,GGGACCAA,-0.118
8,GCTCAGCC,-0.143
9,GAGGACAA,-0.133
10,CGGAGGTC,-0.155
11,TACAACGA,0.0596
12,CAATTTGA,-0.0156
13,ATAGCCCA,0.062
14,CCCCGCGA,-0.0941
15,CCCTGACA,-0.0982
16,CATAGTTA,0.0274
17,ACTTCGCT,0.0324
18,ATAAGCTC,0.121
19,ACACGCTG,0.0723
20,CGAAACCC,0.0648
21,CCAGCTGC,-0.0793
22,GATTTGAC,0.0609
23,AATCTATG,0.104
24,AGCGTGGC,0.0167
25,CTGTCGGC,-0.107

# 5 records picked at random from the list so far, as already listed:
row,Sequence,PBM E-score
17,ACTTCGCT,0.0324
1,ACTTGCCC,-0.0536
18,ATAAGCTC,0.121
13,ATAGCCCA,0.062
16,CATAGTTA,0.0274

# Rewritten with tabs: part of the list above
row	Sequence	PBM E-score
5	CAAACTAA	0.258
14	CCCCGCGA	-0.0941
17	ACTTCGCT	0.0324
21	CCAGCTGC	-0.0793
22	GATTTGAC	0.0609
23	AATCTATG	0.104

# Additional entries

row,Sequence,PBM E-score
1,AATATCGC,0.162
2,CCCAAACA,0.0806
3,CGCGATTA,0.187
4,AGTGACCC,-0.137
5,ATTGATCA,0.0521
6,GATTTCGC,0.28
7,GAGTTTCA,0.0278
8,CCACGCGC,-0.13
9,GCGTGTAC,0.0406
10,CCGTTGTA,0.193
11,CAAGTTAG,-0.0472
12,CTCTAAAA,-0.0258
13,AATACTTG,0.0385
14,CACGCAGC,-0.0845
15,ATAGATCG,-0.113
16,AGTACGTC,-0.0323
17,AAGATTTA,-0.0543
18,AGGTCAGC,0.0991
19,CGCCTAAA,-0.109
20,TATATCAA,0.183
21,CCCATGCG,-0.0811
22,GCAGCTAC,0.184
23,AACAACCT,-0.161
24,AACACGTC,-0.0172
25,AGGGTATC,-0.0476

row,Sequence,PBM E-score
1,ACACTCTC,0.0871
2,AGCGAAAC,0.206
3,CGCCAACC,-0.114
4,GCATCTCC,-0.217
5,GGTAGAAA,-0.08
6,AGATATAT,0.193
7,CCGCCACA,-0.146
8,CTTTTTCC,0.018
9,AGAAGCCT,-0.00153
10,AGGCTGGC,-0.355
11,CGGTAGAG,-0.115
12,CGGCCCGC,0.00361
13,AAACAACG,-0.054
14,AGGCCTTG,-0.142
15,GTGGATAA,0.0412
16,GAGGTCGA,-0.153
17,CGTTCTAA,0.0756
18,AAGATGGG,-0.0605
19,CAACCACC,-0.036
20,GGCTCCCA,-0.326
21,ATGGAGGG,-0.255
22,ATTGCCGC,-0.00666
